Results as given in patent US9087996B2, “Fluorine-containing aromatic compound and production method thereof” (Asahi Glass Company, Limited, priority 2012, dated 2015).

Assay: Property evaluation of deposition-type organic semiconductor material (vacuum-deposited FET element)
Details: vacuum-deposited film, top-contact bottom-gate FET, saturated region, under vacuum

Compound | Carrier mobility (field effect mobility)
FC(F)(F)c1c2cc3ccccc3cc2c(C(F)(F)F)c2cc3ccccc3cc12 [Compound (o)] | 2.1×10^−3 cm^2/V·s
FC(F)(F)c1c2ccccc2c(C(F)(F)F)c2cc3c(C(F)(F)F)c4ccccc4c(C(F)(F)F)c3cc12 [Compound (r)] | 4.5×10^−6 cm^2/V·s
